This is one part of the list. The main result of the screen is listed elsewhere. These columns were measured beside it and carry no call. Compounds called inactive in the main read-out are mostly missing here. Words in brackets tell the shape of the fitted curve; partial curves, single points and poor fits give uncertain potencies. Where a SMILES comes first, the peptide text is derived from it. [ ]: non-standard residue; d: D form. The star is where a group is joined. ξ: configuration not given here. Cbz = O=C(OCc1ccccc1)*; ξS = NC(CO)C(=O)O
Assay: qHTS Assay for Lipid Storage Modulators in Drosophila S3 Cells;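 as to cell number change: cells counted by Cell Tracker Red CMTPX staining in the red channel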
Conditions: BODIPY lipid droplet fluorescence, 18-24 h; for cell number change: measured here: cell count max response, cells fed with added oleic acid
Outline: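 Laser-scanning cytometry quantifies lipid droplet accumulation (500–530 nm total intensity; droplet/cell object ratio) in oleic acid-fed (400 uM added) Drosophila S3 cells treated with a concentration series. 20 uM Triacsin C defined 100% inhibition.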

[1] = measured here: lipid fluorescence (Fed channel) AC50, cells fed with added oleic acid
[2] = measured here: cell number channel AC50, cells fed with added oleic acid

Structure (SMILES) | cell number change [%] | AC50 [1] | AC50 [2]
CN1C(=O)N(C)C2C1N(C)S(=O)(=O)N2C (configuration not stated) | -2.6 | 7.31 µM [falling, partial curve] | 
Cc1ccccc1NC(=O)c1ccc(N/N=C/c2ccccc2O)c([N+](=O)[O-])c1 | 9.27 | 6.51 µM [falling, single point] | 
c1ccc(Cn2ncc3c(NCc4ccco4)ncnc32)cc1 | -30.8 |  | 32.6 µM [falling, partial curve, poor fit]
COc1ccc(NC(=O)COC(=O)CCc2ccccc2)c(OC)c1 | -6.31 | 0.58 µM [falling, single point] | 
O=C(c1ccco1)N1CCN(Cc2nc3cc(Cl)ccc3c(=O)[nH]2)CC1 | 51.1 |  | 
Cc1ccc(C(O)c2cccnc2)o1 (configuration not stated) | 8.38 | 0.326 µM [falling, partial curve] | 2.59 µM [rising, single point]
CCCC(=O)NC(c1ccc2c(c1)OCO2)c1cc(Cl)c2cccnc2c1O (configuration not stated) | 2.41 | 4.61 µM [falling, single point] | 
CCOc1ccc(OCC(=O)OCC(=O)NCC2CCCO2)cc1 (configuration not stated) | -12.3 | 29.1 µM [rising, single point] | 
CCOC(=O)C1CCN(CC(=O)Nc2cc(C)nn2-c2nc3ccccc3s2)CC1 | 8.37 | 0.116 µM [falling, full curve, poor fit] | 
CCOC(=O)CNC(=O)C(CO)NC(=O)OCc1ccccc1 (configuration not stated) (Cbz-[ξS]-Gly-OEt) | -41.7 | 29.1 µM [falling, single point] | 1.84 µM [falling, full curve]
Cc1cc(C)c(S(=O)(=O)N2CCN(C(=O)CCn3nc(C)c(C)c3C)CC2)c(C)c1 | -17.9 |  | 
Cc1nc(NC(=O)CSc2nnc(C3CC3)n2C)sc1C(=O)N(C)C | -0.276 | 23.1 µM [falling, single point] | 
O=S(=O)(c1cccc2nonc12)N1CCCCC1 | -1.47 | 29.1 µM [rising, single point] | 
CCn1c(=O)n(CC)c2cc(N3CCCC3)c(NC(=O)c3cc(Br)ccc3OC)cc21 | -15.1 | 7.31 µM [falling, partial curve] | 
COc1cc(NC(=O)CSc2nccc(C)n2)c(C)cc1[N+](=O)[O-] | 30.5 | 29.1 µM [rising, partial curve] | 16.4 µM [rising, single point]
CCc1cc(N2CCOCC2)cc2c1[nH]c1ccccc12 | 5.61 | 29.1 µM [rising, single point] | 
COc1ccc(CCN(C)C(=O)/C=C/c2c(Cl)nc3ccccn23)cc1OC | -7.3 |  | 0.731 µM [rising, single point]
Cc1ccc2c(c1)-c1c(ssc1=S)C(C)(C)N2C(=O)CSc1nncn1C | 2.59 |  | 
Cc1ccc(-n2nc(-c3cccnc3)cc2C(=O)N2CCOCC2)c(C)c1 | 38.8 |  | 8.2 µM [rising, partial curve, poor fit]

Sorted by length of the SMILES (ascending): some entries from above.
Structure (SMILES) | cell number change [%] | AC50 [1] | AC50 [2]
CCc1cc(N2CCOCC2)cc2c1[nH]c1ccccc12 | 5.61 | 29.1 µM [rising, single point] | 
CCOC(=O)CNC(=O)C(CO)NC(=O)OCc1ccccc1 (configuration not stated) (Cbz-[ξS]-Gly-OEt) | -41.7 | 29.1 µM [falling, single point] | 1.84 µM [falling, full curve]
Cc1ccccc1NC(=O)c1ccc(N/N=C/c2ccccc2O)c([N+](=O)[O-])c1 | 9.27 | 6.51 µM [falling, single point] | 

(list continues)

Structure (SMILES) | cell number change [%] | AC50 [1] | AC50 [2]
CN(CCOc1ccccc1)C(=O)c1ccc(OC2CCN(C(=O)C3CC3)CC2)cc1 | 6.99 |  | 
COc1cccc(CN2CC(C(=O)N(C)Cc3nc4ccc(F)cc4[nH]3)CCC2=O)c1 (configuration not stated) | -1.33 | 0.206 µM [rising, partial curve, poor fit] | 
CCOc1ccc(-c2c(C(=O)N/N=C(\C)c3ccco3)nnn2-c2nonc2N)cc1 | 5.5 | 6.51 µM [rising, partial curve, poor fit] | 
O=C(CN1C(=O)NC2(CCCCCC2)C1=O)N1CCCCC1 | -44.8 |  | 0.517 µM [falling, full curve]
O=C(NNC(=O)C1CC(c2cccnc2)=NO1)Nc1ccccc1F (configuration not stated) | 8.5 | 0.291 µM [rising, partial curve, poor fit] | 
CCOC(=O)c1c(S(=O)(=O)NCC(=O)Nc2ccc(C)cc2)c(C)n(C)c1C | 6.13 | 5.17 µM [rising, single point] | 3.26 µM [rising, single point]
CCOCC(=O)Nc1ccc2c(c1)OCCO2 | -55.1 | 5.17 µM [falling, single point] | 29.1 µM [falling, single point]
O=C(CSCc1ccco1)c1ccc(Cl)s1 | -5.33 | 29.1 µM [falling, single point] | 
C=CCOc1ccc2c(c1)c(S(=O)(=O)c1ccc(C)cc1)cn2COC | -27.2 | 20.6 µM [rising, single point] | 
CC1CC(C)CN(c2nc(NCc3ccco3)nc(N)c2[N+](=O)[O-])C1 (configuration not stated) | -35.1 | 32.6 µM [falling, partial curve, poor fit] | 14.6 µM [falling, partial curve, poor fit]
CC1CC1C(=O)OCC(=O)Nc1ncc(Cl)cc1Cl (configuration not stated) | 10.4 |  | 
CC(C)CC1c2[nH]c3ccccc3c2CCN1C(=O)c1cnccn1 (configuration not stated) | -0.726 | 6.51 µM [rising, partial curve] | 
CCOC(=O)CSc1ncc(OC)c(=O)[nH]1 | -61.2 | 16.4 µM [falling, single point] | 29.1 µM [falling, single point]
CCCc1[nH]c2ccc(C(=O)OC)cc2c1CCC | 2.59 | 0.58 µM [rising, single point] | 
Cc1cccc(NC(=O)CSc2n[nH]c(-c3cccnc3)n2)c1 | 12.4 | 1.46 µM [rising, partial curve] | 
Cc1ccc(C(=O)Oc2cccc(NC(=O)c3cccs3)c2)cc1S(=O)(=O)N1CCOCC1 |  |  | 6.51 µM [falling, single point]
Cc1cc(C(F)(F)F)n2nc(-c3cnn(C)c3C(F)(F)F)c(Br)c2n1 | 121 |  | 29.1 µM [rising, partial curve]
CCn1c(C)c(C)c2cc(C(=O)NCCCN3CCCC3)ccc21 | -23.2 |  | 
Cc1[nH]c2ccccc2c1/C=C/c1cc[n+](C)cc1 | -63.8 | 29.1 µM [falling, single point] | 29.1 µM [falling, single point]
